Test results from publication PMC8842666.
Results are given in words; binding and its absence hold for the method and conditions named. Binding seen in cells or lysates may run through a third protein. Where a sequence is shown, tags or fusion partners need not be part of it.

Protein sequences, listed by entry. Tags and fused reporters are not part of them. Residues count along the entry.
UniProt Q86WV6: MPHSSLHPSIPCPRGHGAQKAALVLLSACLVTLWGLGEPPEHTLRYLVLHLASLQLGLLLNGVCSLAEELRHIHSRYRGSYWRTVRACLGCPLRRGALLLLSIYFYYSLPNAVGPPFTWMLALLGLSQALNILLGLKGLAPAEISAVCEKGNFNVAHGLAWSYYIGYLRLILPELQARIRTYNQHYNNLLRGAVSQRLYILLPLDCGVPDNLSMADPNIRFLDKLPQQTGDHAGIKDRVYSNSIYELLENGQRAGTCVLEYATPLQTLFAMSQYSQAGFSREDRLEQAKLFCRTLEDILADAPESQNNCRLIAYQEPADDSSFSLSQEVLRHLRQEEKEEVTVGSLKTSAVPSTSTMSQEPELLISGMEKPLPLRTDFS
UniProt P19838, residues 1-433: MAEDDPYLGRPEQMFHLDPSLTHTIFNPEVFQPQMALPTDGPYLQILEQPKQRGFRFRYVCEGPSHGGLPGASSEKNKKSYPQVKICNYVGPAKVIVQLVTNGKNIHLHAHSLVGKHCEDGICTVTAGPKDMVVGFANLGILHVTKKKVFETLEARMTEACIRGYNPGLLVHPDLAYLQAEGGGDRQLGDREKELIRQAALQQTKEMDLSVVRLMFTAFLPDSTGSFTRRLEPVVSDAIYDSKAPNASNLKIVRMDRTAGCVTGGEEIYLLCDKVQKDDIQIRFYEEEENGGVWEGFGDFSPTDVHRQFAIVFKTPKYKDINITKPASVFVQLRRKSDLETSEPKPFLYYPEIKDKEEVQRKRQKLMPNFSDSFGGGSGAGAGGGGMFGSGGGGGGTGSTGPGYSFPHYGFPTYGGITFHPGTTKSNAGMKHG
UniProt Q13546: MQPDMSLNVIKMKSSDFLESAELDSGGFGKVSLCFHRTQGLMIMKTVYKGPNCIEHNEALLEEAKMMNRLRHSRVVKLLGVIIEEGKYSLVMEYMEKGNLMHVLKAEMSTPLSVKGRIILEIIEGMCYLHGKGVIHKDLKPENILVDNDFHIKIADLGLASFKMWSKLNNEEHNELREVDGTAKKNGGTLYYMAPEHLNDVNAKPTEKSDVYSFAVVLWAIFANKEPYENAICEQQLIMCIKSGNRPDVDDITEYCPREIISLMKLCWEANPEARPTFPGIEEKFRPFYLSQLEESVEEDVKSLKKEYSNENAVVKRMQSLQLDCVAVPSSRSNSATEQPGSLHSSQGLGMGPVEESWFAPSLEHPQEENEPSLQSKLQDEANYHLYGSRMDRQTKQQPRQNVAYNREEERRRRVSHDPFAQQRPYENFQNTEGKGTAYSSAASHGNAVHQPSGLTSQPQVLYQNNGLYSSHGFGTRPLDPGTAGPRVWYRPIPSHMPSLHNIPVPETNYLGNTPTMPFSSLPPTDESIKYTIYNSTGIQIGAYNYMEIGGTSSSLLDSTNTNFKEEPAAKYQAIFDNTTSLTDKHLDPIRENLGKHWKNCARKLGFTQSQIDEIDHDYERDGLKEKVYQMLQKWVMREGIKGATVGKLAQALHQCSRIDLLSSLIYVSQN
UniProt Q04206: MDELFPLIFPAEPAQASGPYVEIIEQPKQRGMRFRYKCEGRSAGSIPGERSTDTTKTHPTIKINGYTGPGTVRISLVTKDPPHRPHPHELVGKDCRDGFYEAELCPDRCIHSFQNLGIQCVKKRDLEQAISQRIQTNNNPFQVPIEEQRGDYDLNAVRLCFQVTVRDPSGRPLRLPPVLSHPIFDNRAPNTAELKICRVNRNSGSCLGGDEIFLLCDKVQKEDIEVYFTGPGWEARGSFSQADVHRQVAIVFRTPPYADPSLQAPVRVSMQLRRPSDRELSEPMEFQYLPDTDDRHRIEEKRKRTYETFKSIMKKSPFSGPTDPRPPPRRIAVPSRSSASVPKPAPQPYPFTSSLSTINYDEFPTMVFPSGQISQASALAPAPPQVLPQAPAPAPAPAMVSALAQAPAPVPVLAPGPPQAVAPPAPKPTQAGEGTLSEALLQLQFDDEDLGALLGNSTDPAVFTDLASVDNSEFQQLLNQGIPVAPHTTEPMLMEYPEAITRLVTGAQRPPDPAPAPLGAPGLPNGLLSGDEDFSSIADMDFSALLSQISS
UniProt P25963: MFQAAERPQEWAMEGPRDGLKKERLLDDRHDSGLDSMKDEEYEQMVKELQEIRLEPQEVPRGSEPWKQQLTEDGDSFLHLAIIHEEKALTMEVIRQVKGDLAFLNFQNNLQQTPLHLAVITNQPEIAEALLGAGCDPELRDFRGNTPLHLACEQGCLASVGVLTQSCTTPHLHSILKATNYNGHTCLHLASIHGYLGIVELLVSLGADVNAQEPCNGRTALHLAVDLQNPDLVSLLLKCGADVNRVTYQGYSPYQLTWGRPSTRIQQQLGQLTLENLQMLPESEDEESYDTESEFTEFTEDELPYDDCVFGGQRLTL

Experiments:
Assay in all cases: co-IP; HEK293T co-transfected for 24–36 h; RIPA lysis buffer (50 mM Tris–HCl pH 7.4, 150 mM NaCl, 1% NP-40, 1 mM EDTA, 5% glycerol); anti-Flag or anti-HA antibody at 4°C overnight, protein G agarose; washes with 300 mM NaCl; immunoblot
Flag-IRF7 = molecular target: T1, Flag-IRF7 (UniProt Q92985)
T1 sequence: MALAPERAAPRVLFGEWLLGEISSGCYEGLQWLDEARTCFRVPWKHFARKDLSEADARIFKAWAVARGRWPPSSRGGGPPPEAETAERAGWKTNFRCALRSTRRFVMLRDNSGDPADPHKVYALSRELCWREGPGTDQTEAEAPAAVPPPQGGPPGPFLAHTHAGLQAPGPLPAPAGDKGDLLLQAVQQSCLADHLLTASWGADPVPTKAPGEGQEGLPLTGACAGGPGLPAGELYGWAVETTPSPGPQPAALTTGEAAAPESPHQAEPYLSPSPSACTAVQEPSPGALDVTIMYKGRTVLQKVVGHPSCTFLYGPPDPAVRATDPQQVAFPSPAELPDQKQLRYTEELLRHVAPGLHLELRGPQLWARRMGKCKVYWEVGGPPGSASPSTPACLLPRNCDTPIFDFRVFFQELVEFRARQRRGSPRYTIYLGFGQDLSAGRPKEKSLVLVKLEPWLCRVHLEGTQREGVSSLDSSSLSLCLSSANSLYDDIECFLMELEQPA

Flag-TBK1 = molecular target: T2, Flag-TBK1 (UniProt Q9UHD2)
T2 sequence: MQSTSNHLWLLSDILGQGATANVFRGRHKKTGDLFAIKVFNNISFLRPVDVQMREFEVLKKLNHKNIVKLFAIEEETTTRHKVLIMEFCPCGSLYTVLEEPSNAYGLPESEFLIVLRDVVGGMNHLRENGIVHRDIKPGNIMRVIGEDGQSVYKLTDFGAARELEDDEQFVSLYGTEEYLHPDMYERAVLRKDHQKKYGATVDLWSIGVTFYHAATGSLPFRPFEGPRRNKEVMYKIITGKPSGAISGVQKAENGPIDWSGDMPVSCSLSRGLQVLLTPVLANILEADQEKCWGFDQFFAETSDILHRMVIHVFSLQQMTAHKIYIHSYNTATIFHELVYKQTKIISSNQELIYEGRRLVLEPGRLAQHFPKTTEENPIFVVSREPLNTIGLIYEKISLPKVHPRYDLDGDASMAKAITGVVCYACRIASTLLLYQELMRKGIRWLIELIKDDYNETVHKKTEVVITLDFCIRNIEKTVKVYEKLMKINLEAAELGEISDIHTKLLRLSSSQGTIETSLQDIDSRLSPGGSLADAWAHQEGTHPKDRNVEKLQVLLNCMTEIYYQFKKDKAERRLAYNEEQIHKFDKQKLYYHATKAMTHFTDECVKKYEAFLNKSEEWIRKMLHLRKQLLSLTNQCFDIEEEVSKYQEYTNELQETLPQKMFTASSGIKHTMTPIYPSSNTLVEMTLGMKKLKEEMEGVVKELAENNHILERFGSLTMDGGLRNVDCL

Flag-STING = Flag-STING (UniProt Q86WV6)
Flag-p50 = Flag-p50 (UniProt P19838)
Flag-RIP1 = Flag-RIP1 (UniProt Q13546)
Flag-IKKe = molecular target: T3, Flag-IKKe (UniProt Q14164)
T3 sequence: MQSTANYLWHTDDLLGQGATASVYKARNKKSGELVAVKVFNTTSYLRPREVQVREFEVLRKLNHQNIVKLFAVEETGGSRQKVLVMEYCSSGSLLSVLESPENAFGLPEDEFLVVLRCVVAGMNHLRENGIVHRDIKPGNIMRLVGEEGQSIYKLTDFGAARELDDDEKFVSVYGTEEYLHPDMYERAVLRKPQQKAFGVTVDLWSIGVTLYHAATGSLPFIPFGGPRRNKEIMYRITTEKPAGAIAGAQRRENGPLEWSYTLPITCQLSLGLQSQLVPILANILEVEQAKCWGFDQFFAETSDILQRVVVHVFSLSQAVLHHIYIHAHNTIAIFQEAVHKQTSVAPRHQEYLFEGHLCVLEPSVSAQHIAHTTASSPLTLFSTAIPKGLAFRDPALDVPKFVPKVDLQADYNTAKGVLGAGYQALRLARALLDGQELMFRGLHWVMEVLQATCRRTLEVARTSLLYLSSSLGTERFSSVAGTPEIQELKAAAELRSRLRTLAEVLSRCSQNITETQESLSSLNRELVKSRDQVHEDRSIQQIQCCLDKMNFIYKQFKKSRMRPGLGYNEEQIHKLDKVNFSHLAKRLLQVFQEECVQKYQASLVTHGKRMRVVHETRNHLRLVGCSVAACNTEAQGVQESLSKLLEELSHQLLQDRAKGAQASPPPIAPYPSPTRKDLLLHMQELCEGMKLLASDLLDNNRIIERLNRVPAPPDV

Flag-p65 = Flag-p65 (UniProt Q04206)
Flag-IkBα = Flag-IkBα (UniProt P25963)
Flag-IRF3 = molecular target: T4, Flag-IRF3 (UniProt Q14653)
T4 sequence: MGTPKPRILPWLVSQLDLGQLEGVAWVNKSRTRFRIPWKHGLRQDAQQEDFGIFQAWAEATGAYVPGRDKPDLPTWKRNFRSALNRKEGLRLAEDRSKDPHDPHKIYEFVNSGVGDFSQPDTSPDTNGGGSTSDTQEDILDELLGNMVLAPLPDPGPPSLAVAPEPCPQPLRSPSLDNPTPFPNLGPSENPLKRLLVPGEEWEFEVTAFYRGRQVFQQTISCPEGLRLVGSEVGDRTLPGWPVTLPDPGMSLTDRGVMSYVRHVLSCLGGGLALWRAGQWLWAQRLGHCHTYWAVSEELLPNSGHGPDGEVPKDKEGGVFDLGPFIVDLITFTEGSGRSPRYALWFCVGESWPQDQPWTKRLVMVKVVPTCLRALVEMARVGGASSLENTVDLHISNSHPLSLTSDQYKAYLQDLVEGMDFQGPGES

binding (Flag-IRF7): no binding
binding (Flag-TBK1): no binding
binding (Flag-STING): no binding
binding (Flag-p50): no binding
binding (Flag-RIP1): no binding
binding (Flag-IKKe): no binding
binding (Flag-p65): no binding
binding (Flag-IkBα): no binding
binding (Flag-IRF3): no binding
B1: HA-ASB17 (protein, UniProt Q8WXJ9 1-295)
chain: MSKSTKLCGKTSCPRSNIFCNLLDKIVKRPSLQFLGQWGYHCYEPRIYRSLAKILRYVDLDGFDALLTDYIAFVEKSGYRFEVSFNLDFTEICVNTILYWVFARKGNPDFVELLLKKTKDYVQDRSCNLALIWRTFTPVYCPSPLSGITPLFYVAQTRQSNIFKILLQYGILEREKNPINIVLTIVLYPSRVRVMVDRELADIHEDAKTCLVLCSRVLSVISVKEIKTQLSLGRHPIISNWFDYIPSTRYKDPCELLHLCRLTIRNQLLTNNMLPDGIFSLLIPARLQNYLNLEI
